Measurements reported in the supplement of paper PMC4604168 (melanoma cell lines).
Some of the results follow. Many values rest on one well or one pass, so single values are uncertain.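 Cells were imaged in 1,536-well plates, and nuclei stained with an antibody against cleaved PARP were counted against all DNA-stained nuclei to give the apoptosis fraction. Screening doses were chosen to leave most cells alive, and resting and induced cleaved-PARP levels differ strongly between cell lines.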

System: RVH-421
Assay: cleaved PARP positive nuclei fraction relative to DMSO control; melanoma cells; higher = more apoptosis
Conditions: library dose: low library concentration; 72 h

Compound	cleaved PARP positive nuclei fraction [%]
O=C(Oc1ccc([N+](=O)[O-])cc1)N1CCC(C(O)(c2ccc3c(c2)OCO3)c2ccc3c(c2)OCO3)CC1 + Cn1cc(/C=C2\C(=O)Nc3cccnc32)c2ccccc21 [GW441756] (first compound 1 µM, partner dose 0.4 µM)	71.4
CO[C@H]1C[C@@H]2CC[C@@H](C)[C@@](O)(O2)C(=O)C(=O)N2CCCC[C@H]2C(=O)O[C@H]([C@H](C)C[C@@H]2CC[C@@H](OCCO)[C@H](OC)C2)CC(=O)[C@H](C)/C=C(\C)[C@@H](O)[C@@H](OC)C(=O)[C@H](C)C[C@H](C)/C=C/C=C/C=C/1C [everolimus] + Cc1cc(SCc2sc(-c3ccc(C(F)(F)F)c(F)c3)nc2C)ccc1OCC(=O)O [GW0742] (first compound 0.02 µM, partner dose 2 µM)	104
C[C@]12O[C@H](C[C@]1(O)CO)n1c3ccccc3c3c4c(c5c6ccccc6n2c5c31)CNC4=O [Lestaurtinib] + CO[C@@H]1[C@H](N(C)C(=O)c2ccccc2)C[C@H]2O[C@]1(C)n1c3ccccc3c3c4c(c5c6ccccc6n2c5c31)C(=O)NC4 [Midostaurin] (first compound 0.004 µM, partner dose 0.08 µM)	92.6
C[C@]12O[C@H](C[C@]1(O)CO)n1c3ccccc3c3c4c(c5c6ccccc6n2c5c31)CNC4=O [Lestaurtinib] + NC(=O)Nc1cc(-c2cccc(F)c2)sc1C(=O)N[C@H]1CCCNC1 [AZD7762] (first compound 0.004 µM, partner dose 0.02 µM)	107
C[C@]12O[C@H](C[C@]1(O)CO)n1c3ccccc3c3c4c(c5c6ccccc6n2c5c31)CNC4=O [Lestaurtinib] + CN(NC(=O)CC(=O)NN(C)C(=S)c1ccccc1)C(=S)c1ccccc1 [STA4783] (first compound 0.004 µM, partner dose 0.006 µM)	162
N#Cc1c(O)c2c(-c3ccc(-c4ccccc4O)cc3)csc2[nH]c1=O + Cc1cc(SCc2sc(-c3ccc(C(F)(F)F)c(F)c3)nc2C)ccc1OCC(=O)O [GW0742] (first compound 2 µM, partner dose 2 µM)	52.1
C[C@]12O[C@H](C[C@]1(O)CO)n1c3ccccc3c3c4c(c5c6ccccc6n2c5c31)CNC4=O [Lestaurtinib] + O=C(O)C(=O)Nc1sc2c(c1C(=O)O)CCNC2 [TCS401] (first compound 0.004 µM, partner dose 1.66667 µM)	78.7

Part of the list above, set out differently:
O=C(Oc1ccc([N+](=O)[O-])cc1)N1CCC(C(O)(c2ccc3c(c2)OCO3)c2ccc3c(c2)OCO3)CC1 + Cn1cc(/C=C2\C(=O)Nc3cccnc32)c2ccccc21 [GW441756] (first compound 1 µM, partner dose 0.4 µM)
  cleaved PARP positive nuclei fraction [%]: 71.4
N#Cc1c(O)c2c(-c3ccc(-c4ccccc4O)cc3)csc2[nH]c1=O + Cc1cc(SCc2sc(-c3ccc(C(F)(F)F)c(F)c3)nc2C)ccc1OCC(=O)O [GW0742] (first compound 2 µM, partner dose 2 µM)
  cleaved PARP positive nuclei fraction [%]: 52.1

System: SkMel28
Assay: as above
Conditions: library dose: low library concentration; 72 h

Compound	cleaved PARP positive nuclei fraction [%]
Oc1cc(-c2nc(-c3ccccc3)[nH]c2-c2ccncc2)ccc1Cl + C/C(O)=C(\C#N)C(=O)Nc1cc(Br)ccc1Br [LFM-A13] (first compound 0.2 µM, partner dose 2 µM)	215
C[As](C)SC[C@H](NC(=O)CC[C@H](N)C(=O)O)C(=O)NCC(=O)O [Darinaparsin] + COc1ccc2c(c1)CCC1C2CCC2(C)C(NCCCCCCN3C(=O)C=CC3=O)CCC12 [U73122] (first compound 0.4 µM, partner dose 0.4 µM)	52.4
CCc1ccc(CCOc2ccc(CC3SC(=O)NC3=O)cc2)nc1 (stereo not given) [pioglitazone] + O=C(Oc1ccc([N+](=O)[O-])cc1)N1CCC(C(O)(c2ccc3c(c2)OCO3)c2ccc3c(c2)OCO3)CC1 [JZL184] (first compound 2 µM, partner dose 1 µM)	65.7
CC1(C)NC(=O)N(c2ccc([N+](=O)[O-])c(C(F)(F)F)c2)C1=O [nilutamide] + C/C(O)=C(\C#N)C(=O)Nc1cc(Br)ccc1Br [LFM-A13] (first compound 1 µM, partner dose 2 µM)	56.1
C[C@]12O[C@H](C[C@]1(O)CO)n1c3ccccc3c3c4c(c5c6ccccc6n2c5c31)CNC4=O [Lestaurtinib] + O=C(Oc1ccc([N+](=O)[O-])cc1)N1CCC(C(O)(c2ccc3c(c2)OCO3)c2ccc3c(c2)OCO3)CC1 [JZL184] (first compound 0.004 µM, partner dose 1 µM)	193
Oc1cc(-c2nc(-c3ccccc3)[nH]c2-c2ccncc2)ccc1Cl + O=C(Oc1ccc([N+](=O)[O-])cc1)N1CCC(C(O)(c2ccc3c(c2)OCO3)c2ccc3c(c2)OCO3)CC1 [JZL184] (first compound 0.2 µM, partner dose 1 µM)	112
Cc1cc(SCc2sc(-c3ccc(C(F)(F)F)c(F)c3)nc2C)ccc1OCC(=O)O + c1cc(-c2cnn3cc(-c4ccc(OCCN5CCCCC5)cc4)cnc23)ccn1 [Dorsomorphin] (first compound 2 µM, partner dose 0.4 µM)	94.4
C[C@]12O[C@H](C[C@]1(O)CO)n1c3ccccc3c3c4c(c5c6ccccc6n2c5c31)CNC4=O [Lestaurtinib] + C[C@@H]1CCN(C(=O)CC#N)C[C@@H]1N(C)c1ncnc2[nH]ccc12 [CP690550] (first compound 0.004 µM, partner dose 1 µM)	108
O=S(=O)(c1ccccc1)N(CC(F)(F)F)c1ccc(C(O)(C(F)(F)F)C(F)(F)F)cc1 + O=C(Oc1ccc([N+](=O)[O-])cc1)N1CCC(C(O)(c2ccc3c(c2)OCO3)c2ccc3c(c2)OCO3)CC1 [JZL184] (first compound 1.4 µM, partner dose 1 µM)	218
CCN(CC)CCCCNc1ncc2cc(-c3cc(OC)cc(OC)c3)c(NC(=O)NC(C)(C)C)nc2n1 + C/C(O)=C(\C#N)C(=O)Nc1cc(Br)ccc1Br [LFM-A13] (first compound 0.1 µM, partner dose 2 µM)	59.6
CC(C)(C)c1cnc(CSc2cnc(NC(=O)C3CCNCC3)s2)o1 + O=C(Oc1ccc([N+](=O)[O-])cc1)N1CCC(C(O)(c2ccc3c(c2)OCO3)c2ccc3c(c2)OCO3)CC1 [JZL184] (first compound 0.01 µM, partner dose 1 µM)	101
C[As](C)SC[C@H](NC(=O)CC[C@H](N)C(=O)O)C(=O)NCC(=O)O [Darinaparsin] + O=C(O)C(=O)Nc1sc2c(c1C(=O)O)CCNC2 [TCS401] (first compound 0.4 µM, partner dose 1.66667 µM)	99.8
CCN(CC)CCCCNc1ncc2cc(-c3cc(OC)cc(OC)c3)c(NC(=O)NC(C)(C)C)nc2n1 + O=C(Oc1ccc([N+](=O)[O-])cc1)N1CCC(C(O)(c2ccc3c(c2)OCO3)c2ccc3c(c2)OCO3)CC1 [JZL184] (first compound 0.1 µM, partner dose 1 µM)	95
C[As](C)SC[C@H](NC(=O)CC[C@H](N)C(=O)O)C(=O)NCC(=O)O [Darinaparsin] + Cc1cc(SCc2sc(-c3ccc(C(F)(F)F)c(F)c3)nc2C)ccc1OCC(=O)O [GW0742] (first compound 0.4 µM, partner dose 2 µM)	144
CCc1ccc(CCOc2ccc(CC3SC(=O)NC3=O)cc2)nc1 (stereo not given) [pioglitazone] + C/C(O)=C(\C#N)C(=O)Nc1cc(Br)ccc1Br [LFM-A13] (first compound 2 µM, partner dose 2 µM)	341
CO[C@@H]1[C@H](N(C)C(=O)c2ccccc2)C[C@H]2O[C@]1(C)n1c3ccccc3c3c4c(c5c6ccccc6n2c5c31)C(=O)NC4 [Midostaurin] + C/C(O)=C(\C#N)C(=O)Nc1cc(Br)ccc1Br [LFM-A13] (first compound 0.08 µM, partner dose 2 µM)	156
c1cc(-c2cnn3cc(-c4ccc(OCCN5CCCCC5)cc4)cnc23)ccn1 [Dorsomorphin] + O=C(Oc1ccc([N+](=O)[O-])cc1)N1CCC(C(O)(c2ccc3c(c2)OCO3)c2ccc3c(c2)OCO3)CC1 [JZL184] (first compound 0.4 µM, partner dose 1 µM)	101
Cc1cc(SCc2sc(-c3ccc(C(F)(F)F)c(F)c3)nc2C)ccc1OCC(=O)O + Cn1cc(/C=C2\C(=O)Nc3cccnc32)c2ccccc21 [GW441756] (first compound 2 µM, partner dose 0.4 µM)	110
C[C@]12O[C@H](C[C@]1(O)CO)n1c3ccccc3c3c4c(c5c6ccccc6n2c5c31)CNC4=O [Lestaurtinib] + C/C(O)=C(\C#N)C(=O)Nc1cc(Br)ccc1Br [LFM-A13] (first compound 0.004 µM, partner dose 2 µM)	161
C[As](C)SC[C@H](NC(=O)CC[C@H](N)C(=O)O)C(=O)NCC(=O)O [Darinaparsin] + COc1cc2ncnc(Nc3ccc(Oc4ccccc4)cc3)c2cc1OC [SrcI1] (first compound 0.4 µM, partner dose 2 µM)	193
Cn1nnc2c(C(N)=O)ncn2c1=O [temozolomide] + O=C(Oc1ccc([N+](=O)[O-])cc1)N1CCC(C(O)(c2ccc3c(c2)OCO3)c2ccc3c(c2)OCO3)CC1 [JZL184] (first compound 2 µM, partner dose 1 µM)	105
C[C@]1(c2nc3c(C(N)=O)cccc3[nH]2)CCCN1 [Veliparib] + O=C(Oc1ccc([N+](=O)[O-])cc1)N1CCC(C(O)(c2ccc3c(c2)OCO3)c2ccc3c(c2)OCO3)CC1 [JZL184] (first compound 1.4 µM, partner dose 1 µM)	106
Nc1cccc2c1CN(C1CCC(=O)NC1=O)C2=O (stereo not given) [lenalidomide] + O=C(Oc1ccc([N+](=O)[O-])cc1)N1CCC(C(O)(c2ccc3c(c2)OCO3)c2ccc3c(c2)OCO3)CC1 [JZL184] (first compound 1 µM, partner dose 1 µM)	76.3
